Small differences around the control level are noise.
Legend:
Experiment in all cases: normalised response (% of control), CellTox Green; higher = less cell death (100 = DMSO, 0 = benzethonium chloride kill control)
Settings in all cases: incubation time: 72 h
BT-474 = tested on: BT-474
Procedure: (§1)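 DSRT, 72 h incubation, CellTox Green / CellTiter-Glo readout. Signal is normalised to DMSO and benzethonium chloride controls. Value is the normalised response at dose 2.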

BT-549 = tested on: BT-549
Procedure: as §1

CAL-120 = tested on: CAL-120
Procedure: as §1

CAL-148 = tested on: CAL-148
Procedure: as §1

CAL-51 = tested on: CAL-51
Procedure: as §1

CAL-85-1 = tested on: CAL-85-1
Procedure: as §1

DU-4475 = tested on: DU-4475
Procedure: as §1

HCC1143 = tested on: HCC1143
Procedure: as §1

HCC1599 = tested on: HCC1599
Procedure: as §1

HCC1937 = tested on: HCC1937
Procedure: as §1

HDQ-P1 = tested on: HDQ-P1
Procedure: as §1

Hs578T = tested on: Hs578T
Procedure: as §1

MCF-10A = tested on: MCF-10A
Procedure: as §1

MDA-MB-231 = tested on: MDA-MB-231
Procedure: as §1

MDA-MB-436 = tested on: MDA-MB-436
Procedure: as §1

MDA-MB-453 = tested on: MDA-MB-453
Procedure: as §1

MFM-223 = tested on: MFM-223
Procedure: as §1

MDA-MB-468 = tested on: MDA-MB-468
Procedure: as §1

SMILES	normalised response (BT-474) [%]	normalised response (BT-549) [%]	normalised response (CAL-120) [%]	normalised response (CAL-148) [%]	normalised response (CAL-51) [%]	normalised response (CAL-85-1) [%]	normalised response (DU-4475) [%]	normalised response (HCC1143) [%]	normalised response (HCC1599) [%]	normalised response (HCC1937) [%]	normalised response (HDQ-P1) [%]	normalised response (Hs578T) [%]	normalised response (MCF-10A) [%]	normalised response (MDA-MB-231) [%]	normalised response (MDA-MB-436) [%]	normalised response (MDA-MB-453) [%]	normalised response (MFM-223) [%]	normalised response (MDA-MB-468) [%]
CN1CCC(COc2cnc(-c3cccc(Cn4nc(-c5cccc(C#N)c5)ccc4=O)c3)nc2)CC1 (1 nM)	98.6	102	105	105	97.5	95.8	111	90	97.7	98.4	112	110	113	99.4	102	107	100	–
COc1cc(CCc2cc(NC(=O)c3ccc(N4CC(C)NC(C)C4)cc3)n[nH]2)cc(OC)c1 (centres undefined) [AZD4547] (1 nM)	99.6	108	101	101	87	97.6	93.9	83.5	98.2	87.6	112	–	104	93.8	102	95.2	86.7	102
NC(=O)Nc1cc(-c2cccc(F)c2)sc1C(=O)N[C@H]1CCCNC1 [AZD7762] (1 nM)	95.9	107	105	104	92.3	96.2	111	125	118	107	112	102	120	109	86.5	111	98.5	107
COc1cc(Nc2ncc3c(n2)-c2ccc(Cl)cc2C(c2c(F)cccc2OC)=NC3)ccc1C(=O)O [Alisertib] (10 nM)	97.6	66.4	96.7	–	71	98.8	94.9	103	94.2	–	109	117	–	92.7	97	–	98.2	57.1
Nc1ncn([C@@H]2O[C@H](CO)[C@@H](O)[C@H]2O)c(=O)n1 [Azacitidine] (10 nM)	84.3	107	98.1	106	102	103	96	88.2	94.8	97.7	89.6	114	–	87.1	96.4	94.9	84.5	101
COc1cc(Nc2c(C#N)cnc3cc(OCCCN4CCN(C)CC4)c(OC)cc23)c(Cl)cc1Cl [Bosutinib] (10 nM)	104	106	93.9	86.5	95.7	101	97.2	111	102	115	51.5	128	85.7	111	93.7	99.4	104	–
CCCCCCCCc1ccc(CCC(N)(CO)CO)cc1 [Fingolimod] (10 nM)	101	111	106	–	109	101	113	117	115	103	123	116	71.2	93.2	98.3	105	98.4	51.8
